Assay [1] concerns the target METTL11A-FLAG R78G (human) (UniProt Q9BV86). The experiment in a line: co-IP; HEK293T cells co-transfected with a FLAG and a GFP construct; lysis in 50 mM Tris, 300 mM NaCl, 5 mM MgCl2, 1% NP-40, 7 mM BME; anti-FLAG M2 agarose, 1 to 2 h at 4 °C; washes with PBS + 0.1% NP-40 + 500 mM NaCl; Western blot with anti-GFP. Background: Immunoblotting shows a protein as a band on a membrane.

Chains of the proteins cited; added tags and fusions are not shown. Lines headed by an entry give the natural chain unless they say otherwise; changes in a name come on top.
UniProt Q9BV86: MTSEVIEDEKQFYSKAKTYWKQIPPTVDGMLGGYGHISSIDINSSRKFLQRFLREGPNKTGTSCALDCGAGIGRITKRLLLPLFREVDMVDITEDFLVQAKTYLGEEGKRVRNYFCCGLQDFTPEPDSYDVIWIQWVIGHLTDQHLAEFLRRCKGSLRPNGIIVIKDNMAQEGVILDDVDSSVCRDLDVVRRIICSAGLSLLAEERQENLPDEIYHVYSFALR
UniProt Q5VVY1: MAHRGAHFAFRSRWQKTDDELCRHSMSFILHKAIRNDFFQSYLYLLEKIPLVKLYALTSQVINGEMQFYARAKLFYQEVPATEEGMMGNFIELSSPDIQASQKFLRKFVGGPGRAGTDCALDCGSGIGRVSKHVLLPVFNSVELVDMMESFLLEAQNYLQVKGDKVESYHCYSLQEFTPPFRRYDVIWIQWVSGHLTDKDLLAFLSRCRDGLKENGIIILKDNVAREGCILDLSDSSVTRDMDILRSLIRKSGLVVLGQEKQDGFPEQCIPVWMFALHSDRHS

The target of the next assay is METTL11A-FLAG (human) (UniProt Q9BV86). The description is as above.

Results are given in words; binding and its absence hold for the method and conditions named. Binding seen in cells or lysates may run through a third protein. Some entries that bind do so weakly or less than the wild type.

As to “METTL11B-GFP (from UniProt Q5VVY1 1-283) (enzyme)”, the binding entry (in assay [1]; with METTL11A-FLAG (human)) was “binds” in each case.

Source of the values: paper PMC10166787.
